Among the data in publication PMC13503848 are binding values, retold here.

Sequences of proteins named here, by UniProt entry; tags and fusion partners are left off. A change or cut given only in a name is not applied to a line headed by its entry. Residues count along the entry.
UniProt Q03391, residues 28-1323: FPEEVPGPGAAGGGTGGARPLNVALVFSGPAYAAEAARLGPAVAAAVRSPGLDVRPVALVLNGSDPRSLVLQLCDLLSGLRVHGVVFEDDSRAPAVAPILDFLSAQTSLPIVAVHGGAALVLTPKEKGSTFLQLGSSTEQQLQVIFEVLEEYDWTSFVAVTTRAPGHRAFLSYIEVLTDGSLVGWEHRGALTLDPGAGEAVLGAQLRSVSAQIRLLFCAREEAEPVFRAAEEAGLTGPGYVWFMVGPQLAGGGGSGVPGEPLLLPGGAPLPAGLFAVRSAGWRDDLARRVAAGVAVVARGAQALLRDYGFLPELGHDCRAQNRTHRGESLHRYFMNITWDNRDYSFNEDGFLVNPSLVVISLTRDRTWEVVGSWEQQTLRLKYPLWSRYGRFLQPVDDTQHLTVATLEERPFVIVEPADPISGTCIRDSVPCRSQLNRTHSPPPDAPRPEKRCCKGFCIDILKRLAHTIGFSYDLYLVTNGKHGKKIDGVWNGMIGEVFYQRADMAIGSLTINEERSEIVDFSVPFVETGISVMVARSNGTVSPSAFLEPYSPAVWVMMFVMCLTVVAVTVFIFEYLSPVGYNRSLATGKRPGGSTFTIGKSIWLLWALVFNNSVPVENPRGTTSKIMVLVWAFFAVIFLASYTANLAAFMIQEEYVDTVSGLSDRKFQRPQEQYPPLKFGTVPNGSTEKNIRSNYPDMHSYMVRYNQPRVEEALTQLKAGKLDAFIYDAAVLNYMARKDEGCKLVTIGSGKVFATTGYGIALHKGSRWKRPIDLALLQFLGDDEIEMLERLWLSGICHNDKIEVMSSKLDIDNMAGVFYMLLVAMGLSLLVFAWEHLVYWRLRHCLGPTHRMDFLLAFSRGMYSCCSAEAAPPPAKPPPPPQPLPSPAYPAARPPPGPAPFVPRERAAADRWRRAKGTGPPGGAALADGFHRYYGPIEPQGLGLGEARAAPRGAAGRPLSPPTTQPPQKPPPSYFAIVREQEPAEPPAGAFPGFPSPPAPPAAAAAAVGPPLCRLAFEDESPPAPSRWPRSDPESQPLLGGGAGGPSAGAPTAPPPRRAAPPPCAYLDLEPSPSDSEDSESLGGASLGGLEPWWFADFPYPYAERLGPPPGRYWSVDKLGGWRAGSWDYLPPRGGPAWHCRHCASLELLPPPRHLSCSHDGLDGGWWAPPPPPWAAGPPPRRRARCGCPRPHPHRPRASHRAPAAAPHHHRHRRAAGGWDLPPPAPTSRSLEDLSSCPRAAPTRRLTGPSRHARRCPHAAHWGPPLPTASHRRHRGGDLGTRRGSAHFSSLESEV
UniProt Q8VCQ8: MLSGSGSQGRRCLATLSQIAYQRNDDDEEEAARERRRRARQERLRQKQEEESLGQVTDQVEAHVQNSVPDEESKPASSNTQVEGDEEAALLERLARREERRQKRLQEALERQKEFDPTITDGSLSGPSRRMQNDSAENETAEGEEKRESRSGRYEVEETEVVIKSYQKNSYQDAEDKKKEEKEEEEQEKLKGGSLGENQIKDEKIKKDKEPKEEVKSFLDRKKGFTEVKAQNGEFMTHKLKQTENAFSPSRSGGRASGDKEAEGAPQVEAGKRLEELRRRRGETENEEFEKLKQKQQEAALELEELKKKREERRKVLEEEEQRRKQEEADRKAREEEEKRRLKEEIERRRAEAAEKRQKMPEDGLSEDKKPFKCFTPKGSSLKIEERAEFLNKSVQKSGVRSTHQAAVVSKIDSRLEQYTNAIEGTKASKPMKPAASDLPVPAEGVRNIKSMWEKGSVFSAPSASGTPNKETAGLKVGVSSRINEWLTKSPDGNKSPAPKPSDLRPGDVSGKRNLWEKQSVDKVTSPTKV

In the assay the target is GluN2D (NMDA receptor subunit, encoded by Grin2d), expressed as Grin2d-3XFlag (UniProt Q03391). As to the kind of experiment: co-IP; RIPA lysate of cultured mouse brain SMCs transduced with Grin2d-3XFlag lentivirus; anti-GluN2D or IgG control antibodies on Protein G Magnetic Beads; eluates analysed by western blot. (Immunoblotting shows a protein as a band on a membrane.)

Results are given in words; binding and its absence hold for the method and conditions named. In cells and extracts the contact can be indirect. A result given as binding can be weak or reduced; the word gives no strength.

In the case of “caldesmon (encoded by Cald1) (from UniProt Q8VCQ8)”, the binding result is “binds”.
